# Results from the supplement of paper PMC8728848.
# Some of the results follow.
# B1: GS13971A-bth-447-22-447 (Bacteroides thetaiotaomicron) (protein)
# chain: EDVDNERSKGMFSASQSGFSTIEVYDLGPLNKIDLSIAKAGLEDTGGTVTFSVEQSLLDSLNNADGTSYQLLPPECYTIENATYSVSPGGDRRVTGGSLVYDPHKIYNLCGFDELKYVLPLRVSSTGTPMNSDRTATLYGFIVKEAIVRLASTGGDFVVEGGTTTSPMNLDTEISFENEWDLTTSFATKGADYVDNYNSANSTYYIPLPSDFYTLPDVTIAKGKTTGGSAISLLGETLPPGNYLLPVSLGGLSGQGDASINIDKETVANYFVIKQGGPINRDHWTVTANTEEKTGEVSAAYPHNGQTISLIDGEINTFWHSKWQGGEVAPPYEIILDMGKENSVSQLGLIARQNALTSMNLEIYAGDDGETWNLIGKYFFDGSIKTEQMVPVKACDARWIRIYIPTLGSGSSVGHLAEIYVYGTDK
# Assays:
# Test in all cases: glycan array binding signal (z-score within array); higher = stronger binding
# Details in all cases: glycan notation: IUPAC condensed, linker removed
# [1] = molecular target: Gal(b1-3)GlcNAc(b1-2)Man(a1-3)[Gal(b1-3)GlcNAc(b1-2)Man(a1-6)]Man(b1-4)GlcNAc(b1-4)[Fuc(a1-6)]GlcNAc
# Procedure, shortened: (§1)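 From the Consortium for Functional Glycomics database, 3228 arrays were curated, keeping only those whose protein sequence was available. Binding is given as a within-array Z-score averaged across arrays sharing a protein sequence and across linkers. Negative Z-scores can be read as non-binding.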
# [2] = molecular target: Gal(b1-3)GlcNAc(b1-2)Man(a1-3)[GlcNAc(b1-4)][Gal(b1-3)GlcNAc(b1-2)Man(a1-6)]Man(b1-4)GlcNAc(b1-4)GlcNAc
# Procedure, shortened: as §1
# [3] = molecular target: Gal(b1-3)GlcNAc(b1-2)[Gal(b1-3)GlcNAc(b1-6)]Man(a1-6)[Gal(b1-3)GlcNAc(b1-2)Man(a1-3)]Man(b1-4)GlcNAc(b1-4)GlcNAc
# Procedure, shortened: as §1
# [4] = molecular target: Gal(b1-3)GlcNAc(b1-3)Gal(b1-3)GlcNAc
# Procedure, shortened: as §1
# [5] = molecular target: Gal(b1-3)GlcNAc(b1-3)Gal(b1-4)Glc
# Procedure, shortened: as §1
# [6] = molecular target: Gal(b1-3)GlcNAc(b1-3)Gal(b1-4)GlcNAc
# Procedure, shortened: as §1
# [7] = molecular target: Gal(b1-3)GlcNAc(b1-3)Gal(b1-4)GlcNAc(b1-2)Man(a1-3)[Gal(b1-3)GlcNAc(b1-3)Gal(b1-4)GlcNAc(b1-2)Man(a1-6)]Man(b1-4)GlcNAc(b1-4)GlcNAc
# Procedure, shortened: as §1
# [8] = molecular target: Gal(b1-3)GlcNAc(b1-3)Gal(b1-4)GlcNAc(b1-2)[Gal(b1-3)GlcNAc(b1-3)Gal(b1-4)GlcNAc(b1-6)]Man(a1-6)[Gal(b1-3)GlcNAc(b1-3)Gal(b1-4)GlcNAc(b1-2)Man(a1-3)]Man(b1-4)GlcNAc(b1-4)[Fuc(a1-6)]GlcNAc
# Procedure, shortened: as §1
# [9] = molecular target: Gal(b1-3)GlcNAc(b1-3)Gal(b1-4)GlcNAc(b1-3)Gal(b1-4)GlcNAc(b1-2)[Gal(b1-3)GlcNAc(b1-3)Gal(b1-4)GlcNAc(b1-3)Gal(b1-4)GlcNAc(b1-6)]Man(a1-6)[Gal(b1-3)GlcNAc(b1-3)Gal(b1-4)GlcNAc(b1-3)Gal(b1-4)GlcNAc(b1-2)Man(a1-3)]Man(b1-4)GlcNAc(b1-4)[Fuc(a1-6)]GlcNAc
# Procedure, shortened: as §1
# [10] = molecular target: Gal(b1-3)GlcNAc(b1-3)Gal(b1-4)GlcNAc(b1-6)[Gal(b1-3)GlcNAc(b1-3)]Gal(b1-4)Glc
# Procedure, shortened: as §1
# [11] = molecular target: Gal(b1-3)GlcNAc(b1-3)Gal(b1-4)[Fuc(a1-3)]GlcNAc
# Procedure, shortened: as §1
# [12] = molecular target: Gal(b1-3)GlcNAc(b1-3)Gal(b1-4)[Fuc(a1-3)]GlcNAc(b1-6)[Gal(b1-3)GlcNAc(b1-3)]Gal(b1-4)Glc
# Procedure, shortened: as §1
# [13] = molecular target: Gal(b1-3)GlcNAc(b1-3)GalNAc
# Procedure, shortened: as §1
# [14] = molecular target: Gal(b1-3)GlcNAc(b1-6)Gal(b1-4)GlcNAc
# Procedure, shortened: as §1
# [15] = molecular target: Gal(b1-3)GlcNAc(b1-6)GalNAc
# Procedure, shortened: as §1
# [16] = molecular target: Gal(b1-3)GlcNAc(b1-6)[Gal(b1-3)]GalNAc
# Procedure, shortened: as §1
# Gal(b1-3)GlcNAc6S = molecular target: Gal(b1-3)GlcNAc6S
# Procedure, shortened: as §1
# [17] = molecular target: Gal(b1-3)[Fuc(a1-4)]GlcNAc
# Procedure, shortened: as §1
# [18] = molecular target: Gal(b1-3)[Fuc(a1-4)]GlcNAc(b1-2)Man
# Procedure, shortened: as §1
# [19] = molecular target: Gal(b1-3)[Fuc(a1-4)]GlcNAc(b1-2)Man(a1-3)[Gal(b1-3)[Fuc(a1-4)]GlcNAc(b1-2)Man(a1-6)]Man(b1-4)GlcNAc(b1-4)[Fuc(a1-6)]GlcNAc
# Procedure, shortened: as §1
# [20] = molecular target: Gal(b1-3)[Fuc(a1-4)]GlcNAc(b1-3)Gal(b1-3)[Fuc(a1-4)]GlcNAc
# Procedure, shortened: as §1
# [21] = molecular target: Gal(b1-3)[Fuc(a1-4)]GlcNAc(b1-3)Gal(b1-4)[Fuc(a1-3)]GlcNAc
# Procedure, shortened: as §1
# [22] = molecular target: Gal(b1-3)[Fuc(a1-4)]GlcNAc(b1-6)GalNAc
# Procedure, shortened: as §1
# [23] = molecular target: Gal(b1-3)[GlcNAc(b1-6)]GalNAc
# Procedure, shortened: as §1
# [24] = molecular target: Gal(b1-3)[Neu5Ac(a2-6)]GalNAc
# Procedure, shortened: as §1
# [25] = molecular target: Gal(b1-3)[Neu5Ac(a2-6)]GlcNAc(b1-4)Gal(b1-4)Glc
# Procedure, shortened: as §1
# [26] = molecular target: Gal(b1-3)[Neu5Ac(b2-6)]GalNAc
# Procedure, shortened: as §1
# Gal(b1-4)Gal = molecular target: Gal(b1-4)Gal
# Procedure, shortened: as §1
# [27] = molecular target: Gal(b1-4)GalNAc(a1-3)[Fuc(a1-2)]Gal(b1-4)GlcNAc
# Procedure, shortened: as §1
# [28] = molecular target: Gal(b1-4)GalNAc(b1-3)[Fuc(a1-2)]Gal(b1-4)GlcNAc
# Procedure, shortened: as §1
# Gal(b1-4)Glc = molecular target: Gal(b1-4)Glc
# Procedure, shortened: as §1
# Gal(b1-4)Glc6S = molecular target: Gal(b1-4)Glc6S
# Procedure, shortened: as §1
# Gal(b1-4)GlcNAc = molecular target: Gal(b1-4)GlcNAc
# Procedure, shortened: as §1
# [29] = molecular target: Gal(b1-4)GlcNAc(a1-6)Gal(b1-4)GlcNAc
# Procedure, shortened: as §1
# Gal(b1-4)GlcNAc(b1-2)Man = molecular target: Gal(b1-4)GlcNAc(b1-2)Man
# Procedure, shortened: as §1
# [30] = molecular target: Gal(b1-4)GlcNAc(b1-2)Man(a1-3)Man(b1-4)GlcNAc(b1-4)GlcNAc
# Procedure, shortened: as §1
# [31] = molecular target: Gal(b1-4)GlcNAc(b1-2)Man(a1-3)[Gal(b1-4)GlcNAc(b1-2)Man(a1-6)]Man(b1-4)GlcNAc(b1-4)GlcNAc
# Procedure, shortened: as §1
binder,measurement,setting,value
B1,glycan array binding signal (z-score),[1],-0.123
same,glycan array binding signal (z-score),[2],0.373
same,glycan array binding signal (z-score),[3],1.63
same,glycan array binding signal (z-score),[4],-0.193
same,glycan array binding signal (z-score),[5],-0.948
same,glycan array binding signal (z-score),[6],-0.916
same,glycan array binding signal (z-score),[7],-0.482
same,glycan array binding signal (z-score),[8],0.183
same,glycan array binding signal (z-score),[9],0.652
same,glycan array binding signal (z-score),[10],-0.168
same,glycan array binding signal (z-score),[11],-0.146
same,glycan array binding signal (z-score),[12],-0.071
same,glycan array binding signal (z-score),[13],0.748
same,glycan array binding signal (z-score),[14],-0.921
same,glycan array binding signal (z-score),[15],-0.786
same,glycan array binding signal (z-score),[16],-0.77
same,glycan array binding signal (z-score),Gal(b1-3)GlcNAc6S,-1.01
same,glycan array binding signal (z-score),[17],0.215
same,glycan array binding signal (z-score),[18],-0.081
same,glycan array binding signal (z-score),[19],0.287
same,glycan array binding signal (z-score),[20],-0.179
same,glycan array binding signal (z-score),[21],1.09
same,glycan array binding signal (z-score),[22],1.25
same,glycan array binding signal (z-score),[23],0.107
same,glycan array binding signal (z-score),[24],-0.988
same,glycan array binding signal (z-score),[25],-0.915
same,glycan array binding signal (z-score),[26],-0.965
same,glycan array binding signal (z-score),Gal(b1-4)Gal,-0.961
same,glycan array binding signal (z-score),[27],-0.965
same,glycan array binding signal (z-score),[28],0.667
same,glycan array binding signal (z-score),Gal(b1-4)Glc,0.321
same,glycan array binding signal (z-score),Gal(b1-4)Glc6S,0.117
same,glycan array binding signal (z-score),Gal(b1-4)GlcNAc,-0.679
same,glycan array binding signal (z-score),[29],0.525
same,glycan array binding signal (z-score),Gal(b1-4)GlcNAc(b1-2)Man,0.536
same,glycan array binding signal (z-score),[30],-0.525
same,glycan array binding signal (z-score),[31],-1.03

# Copied from the listing for reference:
binder,measurement,setting,value
B1,glycan array binding signal (z-score),Gal(b1-4)Glc6S,0.117
same,glycan array binding signal (z-score),Gal(b1-4)GlcNAc,-0.679
same,glycan array binding signal (z-score),[29],0.525
same,glycan array binding signal (z-score),Gal(b1-4)GlcNAc(b1-2)Man,0.536
same,glycan array binding signal (z-score),[30],-0.525
same,glycan array binding signal (z-score),[31],-1.03
